Reference: PubChem BioAssay AID1224826 (NIAID, 2016)
Screen: 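Knock-downs that raise or lower Tnf reporter signal after endotoxin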 (primary screen). System: RAW264.7 G9 macrophages from mouse bearing reporters for p65 (GFP) and the Tnf promoter (mCherry). Reagents: siRNA pool against mouse genes, 100 nM. Duration: 16 h of LPS stimulation, after 2 days of siRNA transfection. Treatment: bacterial lipopolysaccharide (Salmonella minnesota R595), 10 ng/ml. Read-out: 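Nuclear mCherry signal of the Tnf promoter reporter measured by imaging after background removal, scaled to each plate median and turned into robust z-scores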. Scale: Tnf reporter robust z-score: higher = stronger Tnf promoter reporter signal after LPS. Rule for the call: 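Called active when robust z-score is at most -1.3, matching the median of the Tlr4 knock-down control, or over 3; control wells and wells with under 50 cells never active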. Calls: active = Tnf reporter clearly lowered or raised; inactive = no clear change in Tnf reporter.
The deposit covers about 17,000 reagents; this is a random part of them. Over the whole deposit, about 1,110 (6.6%) were called active. 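Active means lowered or raised reporter signal; replicate intensities are raw and not normalised per plate.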 A reagent listed more than once was tested more than once; the source does not tell the runs apart. Further read-outs or replicates are left out here.

gene	Tnf reporter robust z-score	fewer than 50 cells in well	Outcome
Dmac2 (distal membrane arm assembly complex 2)		fewer than 50 cells per well; well left out of calls	inactive
Pla2g12a (phospholipase A2, group XIIA)	0.15	enough cells in well	inactive
Thyn1 (thymocyte nuclear protein 1)		fewer than 50 cells per well; well left out of calls	inactive
Zfp623 (zinc finger protein 623)	-0.37	enough cells in well	inactive
Lrrc8d (leucine rich repeat containing 8D)	0.42	enough cells in well	inactive
Sp5 (trans-acting transcription factor 5)		fewer than 50 cells per well; well left out of calls	inactive
Cadm3 (cell adhesion molecule 3)	-0.57	enough cells in well	inactive
Lpgat1 (lysophosphatidylglycerol acyltransferase 1)	-1.18	enough cells in well	inactive
Or10a2 (olfactory receptor family 10 subfamily A member 2)	0.92	enough cells in well	inactive
Insc (INSC spindle orientation adaptor protein)		fewer than 50 cells per well; well left out of calls	inactive
Angptl6 (angiopoietin-like 6)	-0.13	enough cells in well	inactive
Syt12 (synaptotagmin XII)	-0.02	enough cells in well	inactive
Adk (adenosine kinase)	3	enough cells in well	inactive
Or5ak22 (olfactory receptor family 5 subfamily AK member 22)	-0.49	enough cells in well	inactive
Rad51 (RAD51 recombinase)	1.18	enough cells in well	inactive
Dlgap5 (DLG associated protein 5)	-0.1	enough cells in well	inactive
Ccdc180 (coiled-coil domain containing 180)	-0.15	enough cells in well	inactive
Foxn2 (forkhead box N2)	0.16	enough cells in well	inactive
Ddx56 (DEAD box helicase 56)	-0.88	enough cells in well	inactive
Bnip5 (BCL2 interacting protein 5)	-0.01	enough cells in well	inactive
Chrna7 (cholinergic receptor, nicotinic, alpha polypeptide 7)	-0.6	enough cells in well	inactive
Col3a1 (collagen, type III, alpha 1)	0.1	enough cells in well	inactive
Dnm1l (dynamin 1-like)	-0.48	enough cells in well	inactive
Ints6l (integrator complex subunit 6 like)	1.57	enough cells in well	inactive
Zdhhc12 (zinc finger, DHHC domain containing 12)		fewer than 50 cells per well; well left out of calls	inactive
Dtx1 (deltex 1, E3 ubiquitin ligase)	-0.9	enough cells in well	inactive
Yipf4 (Yip1 domain family, member 4)		fewer than 50 cells per well; well left out of calls	inactive
Vmn1r85 (vomeronasal 1 receptor 85)	-1.14	enough cells in well	inactive
Smagp (small cell adhesion glycoprotein)	0.4	enough cells in well	inactive
Asb16 (ankyrin repeat and SOCS box-containing 16)	-0.72	enough cells in well	inactive
Prr11 (proline rich 11)	-0.88	enough cells in well	inactive
Mboat7 (membrane bound O-acyltransferase domain containing 7)	-0.26	enough cells in well	inactive
Ldaf1 (lipid droplet assembly factor 1)	-0.22	enough cells in well	inactive
Klhl22 (kelch-like 22)	-0.82	enough cells in well	inactive
Crip2 (cysteine rich protein 2)	1.03	enough cells in well	inactive
Spata3 (spermatogenesis associated 3)		fewer than 50 cells per well; well left out of calls	inactive
Unc5a (unc-5 netrin receptor A)	-1.01	enough cells in well	inactive
Klc4 (kinesin light chain 4)	1.79	enough cells in well	inactive
Gm10033 (predicted gene 10033)	-0.05	enough cells in well	inactive
Fmnl1 (formin-like 1)	-0.02	enough cells in well	inactive
Atp6v1a (ATPase, H+ transporting, lysosomal V1 subunit A)	0.49	enough cells in well	inactive
Cst3 (cystatin C)	0.32	enough cells in well	inactive
Nkx2-2 (NK2 homeobox 2)	-0.04	enough cells in well	inactive
Fads1 (fatty acid desaturase 1)	-0.53	enough cells in well	inactive
Plekhs1 (pleckstrin homology domain containing S1)	-0.37	enough cells in well	inactive
Gltpd2 (glycolipid transfer protein domain containing 2)	0.76	enough cells in well	inactive
Ccl28 (C-C motif chemokine ligand 28)	-0.56	enough cells in well	inactive
Kcnh1	-0.43	enough cells in well	inactive
Rab3d (RAB3D, member RAS oncogene family)	-0.3	enough cells in well	inactive
Slc1a6		fewer than 50 cells per well; well left out of calls	inactive
Exog (exo/endonuclease G)	-0.54	enough cells in well	inactive
Slc9a9		fewer than 50 cells per well; well left out of calls	inactive
Cers4 (ceramide synthase 4)	-0.26	enough cells in well	inactive
Grk1 (G protein-coupled receptor kinase 1)	-0.35	enough cells in well	inactive
Grk1 (G protein-coupled receptor kinase 1)	-0.68	enough cells in well	inactive
Ddx25 (DEAD box helicase 25)	1.02	enough cells in well	inactive
Trpm8	0.35	enough cells in well	inactive
Smarcd3 (SWI/SNF related BAF chromatin remodeling complex subunit D3)	0.7	enough cells in well	inactive
Or4x6 (olfactory receptor family 4 subfamily X member 6)	2.92	enough cells in well	inactive
Pwwp3a (PWWP domain containing 3A, DNA repair factor)	-0.29	enough cells in well	inactive
Aebp2 (AE binding protein 2)	-1.11	enough cells in well	inactive
Fkrp (fukutin related protein)	0.15	enough cells in well	inactive
Or8k37 (olfactory receptor family 8 subfamily K member 37)	1.78	enough cells in well	inactive
Neo1 (neogenin)	-0.7	enough cells in well	inactive
Or5h17 (olfactory receptor family 5 subfamily H member 17)	-0.55	enough cells in well	inactive
Mmut (methylmalonyl-Coenzyme A mutase)	0.37	enough cells in well	inactive
Rgs14 (regulator of G-protein signaling 14)	-0.61	enough cells in well	inactive
Gdap2 (ganglioside-induced differentiation-associated-protein 2)	-0.29	enough cells in well	inactive
Eed (embryonic ectoderm development)	0.31	enough cells in well	inactive
Or5b97 (olfactory receptor family 5 subfamily B member 97)	0.7	enough cells in well	inactive
Nrbp2 (nuclear receptor binding protein 2)	0.6	enough cells in well	inactive
Dctn5 (dynactin 5)	-1.25	enough cells in well	inactive
Or1j4 (olfactory receptor family 1 subfamily J member 4)	-0.58	enough cells in well	inactive
Unc50 (unc-50 homolog)		fewer than 50 cells per well; well left out of calls	inactive
Mettl3	-0.63	enough cells in well	inactive
